# Results of single-concentration screens

Sequences of proteins named here, by UniProt entry; tags and fusion partners are left off. Residues count along the entry.
UniProt Q4DA54, 1-478: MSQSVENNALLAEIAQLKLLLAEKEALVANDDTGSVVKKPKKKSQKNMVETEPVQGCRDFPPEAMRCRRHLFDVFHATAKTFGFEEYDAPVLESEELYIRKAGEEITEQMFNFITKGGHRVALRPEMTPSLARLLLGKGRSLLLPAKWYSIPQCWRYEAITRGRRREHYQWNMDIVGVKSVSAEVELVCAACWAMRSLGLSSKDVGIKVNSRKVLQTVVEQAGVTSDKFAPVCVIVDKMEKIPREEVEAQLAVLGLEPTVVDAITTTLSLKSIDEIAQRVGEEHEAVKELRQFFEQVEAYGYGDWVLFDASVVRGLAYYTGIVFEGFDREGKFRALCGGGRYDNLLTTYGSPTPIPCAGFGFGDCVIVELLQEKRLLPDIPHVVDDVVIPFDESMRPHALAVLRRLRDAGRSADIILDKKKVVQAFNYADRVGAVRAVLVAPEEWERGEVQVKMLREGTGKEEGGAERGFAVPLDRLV
UniProt A4I591, 1-473: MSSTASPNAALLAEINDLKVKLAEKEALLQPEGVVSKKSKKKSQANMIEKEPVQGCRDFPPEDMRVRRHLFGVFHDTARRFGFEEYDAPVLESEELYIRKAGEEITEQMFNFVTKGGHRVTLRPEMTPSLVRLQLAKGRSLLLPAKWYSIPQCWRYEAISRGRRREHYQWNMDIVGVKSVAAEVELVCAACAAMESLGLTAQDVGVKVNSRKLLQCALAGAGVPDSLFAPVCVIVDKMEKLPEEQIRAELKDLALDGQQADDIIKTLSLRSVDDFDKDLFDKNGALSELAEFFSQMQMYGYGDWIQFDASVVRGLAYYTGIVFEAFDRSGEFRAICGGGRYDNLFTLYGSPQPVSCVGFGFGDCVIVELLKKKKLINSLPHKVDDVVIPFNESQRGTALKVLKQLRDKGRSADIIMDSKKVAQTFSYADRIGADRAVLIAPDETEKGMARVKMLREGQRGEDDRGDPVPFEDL

Data taken from ChEMBL document CHEMBL3988442, “University of Dundee, Small-Polar-MMV Screening Library” (2021).

Toxoplasma: 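Assay of Toxoplasma gondii numbers, read through their beta-galactosidase reporter with a colour substrate. Compounds at 10 µM. The record gives no direction; the compounds picked for IC50 retests had high values, so higher reads as fewer parasites. Size under these conditions: about 67,000 compounds, about 260 of them at 50% or above in at least one test.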
TcHisRS: 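Enzyme assay of histidyl-tRNA synthetase; the read-out is not stated. Target: Histidine-tRNA ligase, Trypanosoma cruzi CL Brener (UniProt Q4DA54). Tested at 30 µM. The record gives no direction; compounds that gave an IC50 in retests scored well above the rest, so higher reads as stronger inhibition. About 69,000 compounds were tested under these conditions; 0.045% (about 31) showed 50% or more at least once.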
LiHisRS: 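Enzyme assay of histidyl-tRNA synthetase; the read-out is not stated. Target: Histidine-tRNA ligase, Leishmania infantum (UniProt A4I591). Concentration: 30 µM. Direction is inferred from retests: higher values go with stronger inhibition. The assay is labelled LdHisRS but filed under L. infantum. About 69,000 compounds were tested under these conditions; 0.6% (about 410) showed 50% or more at least once.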
T. brucei: 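Whole-parasite assay of Trypanosoma brucei over 72 hours; the read-out is not stated. Tested at 30 µM. The record gives no direction; compounds that gave an IC50 in retests scored well above the rest, so higher reads as stronger inhibition. Values scatter widely below zero; nearly all retest evidence comes from the higher of the two concentrations used. Of about 64,000 compounds tested this way, about 940 (1.5%) reached 50% or more in at least one test.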

The filed quantity is “Percent Effect” (%). How 0% and 100% were set is not recorded. Most values in the screen are low, and negative values occur. The compounds are a random part of those screened. A dash means the value is not listed here; it may have been measured.

| compound | Toxoplasma | TcHisRS | LiHisRS | T. brucei |
|---|---|---|---|---|
| `NC(=O)c1cc(CC2CCCN(Cc3cnccn3)CC2)ncn1` (centres undefined) | 8.099 | 6.202 | 17.02 | -7.777 |
| `COCCN1CCc2ncnc(-c3ccccc3)c2CC1` | - | 0 | 15.32 | - |
| `Cc1ccc(C(=O)N2CCSCC2)cc1NC(C)C` | -10.76 | -0.9804 | -1.6 | -24.93 |
| `Cn1ccnc1C(=O)N[C@@H]1CN(Cc2ccoc2)[C@@H]2CCCO[C@@H]21` | - | 3.315 | 17.12 | - |
| `COc1ccc(NC(=O)Cn2nc(C)c(C)cc2=O)c(OC)c1` | 7.137 | -1.508 | 4 | -31.98 |
| `CN(C)C(=O)COC1COC2(CCN(CC3CCOCC3)CC2)C1.O=C(O)C(F)(F)F` (centres undefined) | -9.291 | - | - | 29.02 |
| `CCCN(Cc1cccnc1)C1CC(C)(C)NC(C)(C)C1` | - | 14.29 | 18.84 | - |
| `CC(=O)Nc1ccc(CNc2ccn(Cc3ccccc3)n2)cc1` | -18.37 | 4.741 | 11.39 | 4.673 |
| `O=C(Cn1ccc2ccc(Br)cc21)NCc1ccc(C(=O)O)cc1` | -0.8547 | -6.522 | 11.43 | -17.5 |
| `[H][C@@]12COC[C@]1(CNS(C)(=O)=O)CN(C(=O)c1cnccn1)C2` | -20.32 | - | - | -85.34 |
| `Fc1cccc(-c2c[nH]c([C@@H]3COCCN3C3CCOCC3)n2)c1` | -7.49 | 12.87 | 19.44 | -8.304 |
| `O=C(NCc1ccccc1Cl)c1[nH]nc2c1CS(=O)(=O)CC2` | 8.283 | 1.754 | 19.64 | -23.14 |
| `CC[C@H]1CN2CC[C@H]1C[C@@H]2CNC(=O)c1ccco1` | - | 2.174 | 17.57 | - |
| `COCCc1noc(CN2CCOC(Cn3cc(C)cn3)C2)n1` (centres undefined) | 10.52 | 5.413 | 15.38 | - |
| `COc1ccc(F)cc1CN1CCN(Cc2nccn2C)C(C)C1` (centres undefined) | -14.33 | 12.05 | 16 | -54.14 |
| `Cc1cccc(-n2c(C)cc(C(=O)N3CCn4c(C)nnc4C3)c2C)c1` | 0.1883 | -2.273 | -40.91 | 49.07 |
| `O=C(O)C(F)(F)F.[H][C@]12CCN(C(=O)NCC(C)C)CC[C@@]1([H])S(=O)(=O)N(Cc1cccnc1)C2` | -18.83 | - | - | -52.59 |
| `Cc1noc(C)c1CCC(=O)N1CCOCC1CC(=O)N1CCCC1` (centres undefined) | -5.248 | 9 | -91.84 | -4.164 |
| `COC(=O)c1cc(C(=O)N2CCOC(C)(C)C2)n(-c2ccccc2)n1` | 6.867 | 1.775 | 1.786 | 6.059 |
| `COc1ccc(OC)c(Sc2ncccc2C(=O)N(C)CCC#N)c1` | 6.758 | 3.759 | 9.756 | -16.84 |
| `CN1CCC2(CCN(C(=O)c3ccccc3)CC2)C1` | -2.012 | 6.796 | 21.36 | -17.44 |
| `O=C(O)C(F)(F)F.O=C(O)C(F)(F)F.[H][C@@]12CCCO[C@]1([H])[C@H](N(C)Cc1ccco1)CN2Cc1ccco1` | 2.385 | - | - | -4.54 |
| `O=C(O)C(F)(F)F.O=C(O)C(F)(F)F.[H][C@@]12COC[C@]1(COc1cccnc1)CN(C1CCOCC1)C2` | -27.32 | - | - | -18.97 |
| `O=C(O)[C@@H]1CN(Cc2c[nH]c(CC3CCCC3)n2)C[C@H]1c1ccccn1` | 1.402 | 3.185 | 32.39 | -36.99 |
| `c1ccc(Oc2ncccc2CNCc2ccccn2)cc1` | -5.485 | -1.087 | 9.091 | -4.265 |
| `O=C(CCN1CCCC1=O)Nc1cnn(-c2ccccc2Cl)c1` | 12.35 | 1.754 | 7.273 | -11.01 |
| `Cc1nc(CNC(=O)c2oc3ccccc3c2CN(C)C)oc1C` | 10.16 | -2.89 | -1.333 | -3.045 |
| `O=C(C1CC(=O)N(c2ccccc2Br)C1)N1CCC2(CC1)OCCO2` (centres undefined) | 1.652 | 3.734 | 8.738 | -9.171 |
| `O=C(O)C(F)(F)F.[H][C@@]12C[C@H](C(=O)NC)CN(CC3CC3)[C@]1([H])CCO2` | 11.45 | - | - | 6.711 |
| `COc1ccc(N2CCCN(CC(=O)N3CCNC(=O)C3)CC2)cc1` | -0.2401 | 9.244 | 12.28 | 3.268 |
| `CCN(Cc1ccc2c(c1)OCO2)S(=O)(=O)N(C)C` | 1.012 | 5.143 | 21.15 | - |
| `CS(=O)(=O)CCC(=O)N1CCC(c2ccc(F)c(F)c2)CC1` | 1.129 | 7.843 | 8.333 | -44.06 |
| `CN(C)CC1(O)CCCN(Cc2cnc(-c3ccco3)nc2)CC1` (centres undefined) | -5.83 | 10.24 | 21.98 | -56.83 |
| `O=S(=O)(NCCn1cc(C2CCCNC2)nn1)c1ccc(Cl)cc1` (centres undefined) | 4.5 | 2.381 | 26.67 | -3.707 |
| `CCc1nnc(CN(C)C(=O)CN2CC(c3ccccc3)CC2=O)o1` (centres undefined) | -2.76 | 2.128 | 7.463 | -24.73 |
| `O=C(O)C(F)(F)F.[H][C@@]12COC[C@]1(CNC(=O)c1ccco1)CN(Cc1sccc1C)C2` | 4.655 | - | - | -23.25 |
| `CNc1nc(CNC(=O)Nc2cccc(F)c2)cs1` | 1.616 | 1.149 | 6.154 | 16.75 |
| `OC1(CNc2ccc(Br)cn2)CCOCC1` | -0.8115 | 9.091 | 7.853 | 11.51 |
| `COC[C@@H]1CCC[C@]12CN(Cc1cccc(C)n1)CCO2` | - | -0.5464 | 11.65 | - |

5 of the entries, repeated:

{"compound": "CS(=O)(=O)CCC(=O)N1CCC(c2ccc(F)c(F)c2)CC1", "Toxoplasma": 1.129, "TcHisRS": 7.843, "LiHisRS": 8.333, "T. brucei": -44.06}
{"compound": "COCCN1CCc2ncnc(-c3ccccc3)c2CC1", "TcHisRS": 0, "LiHisRS": 15.32}
{"compound": "O=C(C1CC(=O)N(c2ccccc2Br)C1)N1CCC2(CC1)OCCO2", "stereo": "centres undefined", "Toxoplasma": 1.652, "TcHisRS": 3.734, "LiHisRS": 8.738, "T. brucei": -9.171}
{"compound": "[H][C@@]12COC[C@]1(CNS(C)(=O)=O)CN(C(=O)c1cnccn1)C2", "Toxoplasma": -20.32, "T. brucei": -85.34}
{"compound": "NC(=O)c1cc(CC2CCCN(Cc3cnccn3)CC2)ncn1", "stereo": "centres undefined", "Toxoplasma": 8.099, "TcHisRS": 6.202, "LiHisRS": 17.02, "T. brucei": -7.777}